Test results published in patent US10098949B2, “Adsorption of immunopotentiators to insoluble metal salts” (GlaxoSmithKline Biologicals SA, priority 2010, dated 2018).
For part of these data: For at least one compound, name, drawing or mass did not settle the structure. Some results were stated once for a whole list of compounds, not compound by compound.

What was measured:
[1] = assay type: physicochemical; conditions: over at least a 3 week period
serum cytokines = conditions: in vivo

| SMILES | adsorption to Al—H on storage [1] | systemic cytokines, effect of adsorption to Al—H (serum cytokines) |
| --- | --- | --- |
| Cc1cc(OCCCC(F)(F)P(=O)(O)O)ccc1CCc1cnc2c(N)nc3cc(CCC(=O)O)ccc3c2c1 [Compound 3] | at least 95% |  |
| Cc1cc(OCCOCCOCCC(F)(F)P(=O)(O)O)ccc1CCc1cnc2c(N)nc3cc(CCC(=O)O)ccc3c2c1 [Compound 4] | at least 95% |  |
| COCCOc1nc(N)c2nc(O)n(Cc3ccc(CP(=O)(O)O)cc3)c2n1 [Compound 6, (4-((6-amino-2-(2-methoxyethoxy)-8-oxo-7H-purin-9(8H)-yl)methyl)benzyl)phosphonic Acid] |  | enhanced |
